The results in this text go back to article PMC7835043.

Sequences of proteins named here, by UniProt entry; tags and fusion partners are left off. Residues count along the entry.
UniProt O75460, residues 19-977: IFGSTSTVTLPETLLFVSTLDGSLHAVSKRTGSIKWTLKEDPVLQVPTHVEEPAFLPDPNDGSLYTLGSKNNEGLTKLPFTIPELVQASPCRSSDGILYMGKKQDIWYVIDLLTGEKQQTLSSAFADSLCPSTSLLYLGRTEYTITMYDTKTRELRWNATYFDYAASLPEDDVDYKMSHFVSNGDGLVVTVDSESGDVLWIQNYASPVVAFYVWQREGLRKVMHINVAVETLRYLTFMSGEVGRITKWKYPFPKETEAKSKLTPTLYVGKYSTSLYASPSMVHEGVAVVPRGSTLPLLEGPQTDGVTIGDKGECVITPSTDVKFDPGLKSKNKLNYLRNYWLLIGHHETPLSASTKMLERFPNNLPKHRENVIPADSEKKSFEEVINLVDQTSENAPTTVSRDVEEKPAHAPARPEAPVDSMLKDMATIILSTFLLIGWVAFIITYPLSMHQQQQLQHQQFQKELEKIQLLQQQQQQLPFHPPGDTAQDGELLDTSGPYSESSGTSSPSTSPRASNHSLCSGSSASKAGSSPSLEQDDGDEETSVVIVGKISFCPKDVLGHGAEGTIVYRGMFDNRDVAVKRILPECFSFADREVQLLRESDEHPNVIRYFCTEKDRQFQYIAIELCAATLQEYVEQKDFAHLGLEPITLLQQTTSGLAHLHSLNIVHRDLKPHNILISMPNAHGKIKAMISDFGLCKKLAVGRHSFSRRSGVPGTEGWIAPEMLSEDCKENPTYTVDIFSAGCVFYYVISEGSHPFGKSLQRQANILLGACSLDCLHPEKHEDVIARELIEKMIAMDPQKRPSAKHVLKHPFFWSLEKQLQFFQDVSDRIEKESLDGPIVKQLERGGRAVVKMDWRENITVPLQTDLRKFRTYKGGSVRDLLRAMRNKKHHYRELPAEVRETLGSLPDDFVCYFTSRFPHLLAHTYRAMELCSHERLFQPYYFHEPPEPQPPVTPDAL

These are yes or no findings as the source states them, for the method shown. In cells and extracts the contact can be indirect.

For this assay, the target named is T1, coiled-coil domain containing 170 (CCDC170) (human) (UniProt Q8IYT3).
T1 sequence: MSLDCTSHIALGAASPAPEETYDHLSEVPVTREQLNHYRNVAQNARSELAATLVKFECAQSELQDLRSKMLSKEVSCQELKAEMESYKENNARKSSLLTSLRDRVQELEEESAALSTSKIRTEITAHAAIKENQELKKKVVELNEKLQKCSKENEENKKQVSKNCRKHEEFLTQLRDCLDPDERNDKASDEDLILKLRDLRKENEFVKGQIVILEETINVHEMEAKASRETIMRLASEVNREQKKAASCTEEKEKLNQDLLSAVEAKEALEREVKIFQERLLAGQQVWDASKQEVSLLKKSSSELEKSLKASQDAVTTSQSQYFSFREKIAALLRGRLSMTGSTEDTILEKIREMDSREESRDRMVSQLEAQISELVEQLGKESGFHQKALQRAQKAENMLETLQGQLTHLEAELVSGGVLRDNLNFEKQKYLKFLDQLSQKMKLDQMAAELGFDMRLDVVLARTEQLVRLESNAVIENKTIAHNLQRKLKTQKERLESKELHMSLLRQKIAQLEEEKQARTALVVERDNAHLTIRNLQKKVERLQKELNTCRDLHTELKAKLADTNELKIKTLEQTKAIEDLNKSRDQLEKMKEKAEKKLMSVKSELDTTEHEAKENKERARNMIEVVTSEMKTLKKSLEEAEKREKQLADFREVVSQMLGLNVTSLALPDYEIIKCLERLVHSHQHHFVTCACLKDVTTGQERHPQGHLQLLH
Put plainly: co-IP; data not presented; cells, antibodies and conditions not told.

Take “Inositol-requiring enzyme 1 alpha (IRE1α) (from UniProt O75460 19-977)”: the binding result is reported as “no binding”.
